A short description of the data set: peptide made by a vendor. Conditions: whole synthesis, MASS spectroscopy.

Drawing on patent publication US6953656B2 (Massachusetts Institute of Technology, priority 2000, dated 2005), this text covers final ms purity for one substance.

Consider n-CGGKETAAAKFERQHMDS-c (S18 peptide), for which the final ms purity result is given as “nearly 100%”.
